The target of test [1] is cortactin (human (endogenous in HASM cells)) (UniProt Q14247). Nature of the test: co-IP; HASM cells expressing CAS-WT or CAS-SD; ACh 100 uM 5 min or unstimulated; cortactin/Pfn-1 interaction; which protein was precipitated not given.
Test [2] has as its target T1, Crk-associated substrate (CAS) (human (endogenous in HASM cells)) (UniProt P56945).
T1 sequence: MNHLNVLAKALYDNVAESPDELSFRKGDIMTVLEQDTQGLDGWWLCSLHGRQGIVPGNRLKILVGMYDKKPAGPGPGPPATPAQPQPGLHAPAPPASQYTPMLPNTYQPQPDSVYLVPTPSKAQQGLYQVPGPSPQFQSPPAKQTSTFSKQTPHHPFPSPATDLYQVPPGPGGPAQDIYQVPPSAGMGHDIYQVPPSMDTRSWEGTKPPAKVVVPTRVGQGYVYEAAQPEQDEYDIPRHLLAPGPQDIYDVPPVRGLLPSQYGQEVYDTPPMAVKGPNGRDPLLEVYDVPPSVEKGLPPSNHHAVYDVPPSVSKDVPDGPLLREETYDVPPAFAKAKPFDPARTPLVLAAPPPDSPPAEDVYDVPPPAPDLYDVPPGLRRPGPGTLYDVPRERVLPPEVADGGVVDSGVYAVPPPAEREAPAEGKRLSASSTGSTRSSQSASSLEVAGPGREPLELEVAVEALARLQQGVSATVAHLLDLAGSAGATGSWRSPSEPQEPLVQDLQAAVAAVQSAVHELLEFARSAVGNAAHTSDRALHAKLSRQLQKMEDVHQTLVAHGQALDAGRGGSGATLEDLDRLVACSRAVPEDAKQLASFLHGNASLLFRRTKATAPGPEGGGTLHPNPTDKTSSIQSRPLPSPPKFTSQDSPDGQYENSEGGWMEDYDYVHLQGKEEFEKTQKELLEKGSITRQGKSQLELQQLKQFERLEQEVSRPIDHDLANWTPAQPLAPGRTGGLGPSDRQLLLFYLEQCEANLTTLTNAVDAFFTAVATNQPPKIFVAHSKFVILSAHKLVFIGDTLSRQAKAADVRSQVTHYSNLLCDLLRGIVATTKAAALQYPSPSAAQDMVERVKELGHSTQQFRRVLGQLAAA
The test can be described thus: co-IP; HASM cells transfected with WT CAS or CAS-SD, or with WT cortactin or NP cortactin; ACh 100 uM 5 min or unstimulated; Pfn-1/CAS protein ratios from blots.

Sequences of proteins named here, by UniProt entry; tags and fusion partners are left off.
UniProt Q14247: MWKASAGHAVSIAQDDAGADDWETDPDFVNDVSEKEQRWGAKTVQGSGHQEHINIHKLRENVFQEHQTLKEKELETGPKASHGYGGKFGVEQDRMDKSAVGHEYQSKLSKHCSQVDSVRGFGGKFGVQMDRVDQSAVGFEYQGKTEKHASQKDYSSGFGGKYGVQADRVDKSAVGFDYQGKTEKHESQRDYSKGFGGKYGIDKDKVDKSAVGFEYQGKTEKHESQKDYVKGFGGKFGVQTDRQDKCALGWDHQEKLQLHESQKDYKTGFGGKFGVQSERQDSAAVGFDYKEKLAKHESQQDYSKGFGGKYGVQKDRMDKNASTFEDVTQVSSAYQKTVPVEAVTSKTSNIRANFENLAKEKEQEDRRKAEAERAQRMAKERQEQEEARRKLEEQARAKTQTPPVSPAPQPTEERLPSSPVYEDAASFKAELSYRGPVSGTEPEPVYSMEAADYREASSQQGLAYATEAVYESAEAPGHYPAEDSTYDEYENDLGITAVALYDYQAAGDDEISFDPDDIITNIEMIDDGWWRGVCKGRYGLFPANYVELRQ
UniProt P62962: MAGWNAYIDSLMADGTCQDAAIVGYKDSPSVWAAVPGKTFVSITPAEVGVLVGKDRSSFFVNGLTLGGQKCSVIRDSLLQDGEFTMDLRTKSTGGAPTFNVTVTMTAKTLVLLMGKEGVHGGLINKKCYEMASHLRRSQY
UniProt P07737: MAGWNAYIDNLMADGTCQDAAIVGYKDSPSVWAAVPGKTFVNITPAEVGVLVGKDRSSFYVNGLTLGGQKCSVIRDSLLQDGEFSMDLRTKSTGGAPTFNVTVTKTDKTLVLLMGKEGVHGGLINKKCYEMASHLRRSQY

Test [3] addresses T2, WT CAS (wild type Crk-associated substrate) (UniProt P56945).
T2 sequence: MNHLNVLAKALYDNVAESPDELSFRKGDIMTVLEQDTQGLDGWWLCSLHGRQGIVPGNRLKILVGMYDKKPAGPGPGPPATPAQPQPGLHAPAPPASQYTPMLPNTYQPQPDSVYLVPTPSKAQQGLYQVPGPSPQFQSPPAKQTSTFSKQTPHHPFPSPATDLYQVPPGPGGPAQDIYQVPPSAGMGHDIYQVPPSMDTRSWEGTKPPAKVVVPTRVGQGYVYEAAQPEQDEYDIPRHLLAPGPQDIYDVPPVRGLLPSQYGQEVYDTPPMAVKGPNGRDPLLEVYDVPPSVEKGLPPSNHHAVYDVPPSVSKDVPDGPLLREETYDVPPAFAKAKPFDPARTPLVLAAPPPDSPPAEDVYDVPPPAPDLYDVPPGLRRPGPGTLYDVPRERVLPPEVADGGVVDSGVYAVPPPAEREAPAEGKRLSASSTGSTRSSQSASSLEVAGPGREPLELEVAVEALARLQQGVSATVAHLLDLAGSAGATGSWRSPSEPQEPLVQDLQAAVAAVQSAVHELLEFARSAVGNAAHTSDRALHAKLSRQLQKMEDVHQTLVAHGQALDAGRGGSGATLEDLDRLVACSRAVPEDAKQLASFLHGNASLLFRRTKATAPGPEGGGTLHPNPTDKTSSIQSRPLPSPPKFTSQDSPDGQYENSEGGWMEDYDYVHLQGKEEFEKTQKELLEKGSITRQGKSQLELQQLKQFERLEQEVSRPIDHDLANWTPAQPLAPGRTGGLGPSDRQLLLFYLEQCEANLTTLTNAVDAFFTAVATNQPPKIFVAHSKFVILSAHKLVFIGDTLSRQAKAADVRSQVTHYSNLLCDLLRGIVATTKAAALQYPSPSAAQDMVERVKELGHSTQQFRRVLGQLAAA
The description is as above.

The target in test [4] is T3, Crk-associated substrate (CAS) (mouse (endogenous in tracheal rings)) (UniProt Q61140).
T3 sequence: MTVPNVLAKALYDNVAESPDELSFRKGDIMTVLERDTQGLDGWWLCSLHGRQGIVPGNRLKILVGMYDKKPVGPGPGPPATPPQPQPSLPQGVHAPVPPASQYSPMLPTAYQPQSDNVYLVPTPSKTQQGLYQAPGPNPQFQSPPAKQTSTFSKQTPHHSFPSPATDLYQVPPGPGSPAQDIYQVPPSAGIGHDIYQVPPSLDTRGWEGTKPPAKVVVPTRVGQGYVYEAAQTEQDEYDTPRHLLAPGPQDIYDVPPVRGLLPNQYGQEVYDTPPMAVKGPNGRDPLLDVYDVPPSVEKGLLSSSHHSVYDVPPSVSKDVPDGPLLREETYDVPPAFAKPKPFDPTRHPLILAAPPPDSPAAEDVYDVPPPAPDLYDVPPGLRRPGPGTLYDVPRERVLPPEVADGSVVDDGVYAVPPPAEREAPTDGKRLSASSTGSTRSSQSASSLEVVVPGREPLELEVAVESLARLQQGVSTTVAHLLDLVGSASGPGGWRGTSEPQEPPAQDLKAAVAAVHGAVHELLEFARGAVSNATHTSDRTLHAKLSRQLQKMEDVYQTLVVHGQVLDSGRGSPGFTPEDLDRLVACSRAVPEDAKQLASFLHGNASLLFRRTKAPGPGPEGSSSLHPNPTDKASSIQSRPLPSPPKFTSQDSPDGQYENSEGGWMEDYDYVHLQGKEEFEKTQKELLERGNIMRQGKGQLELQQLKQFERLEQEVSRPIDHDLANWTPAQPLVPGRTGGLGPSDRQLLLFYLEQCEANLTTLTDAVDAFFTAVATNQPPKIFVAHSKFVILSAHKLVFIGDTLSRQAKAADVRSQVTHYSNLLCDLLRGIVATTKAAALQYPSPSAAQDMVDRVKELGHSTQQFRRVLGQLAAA
Nature of the test: co-IP; extracts of mouse tracheal rings (wild type; c-Abl-lox and c-Abl-smko), untreated or ACh 100 uM 5 min; CAS antibody overnight, protein A-Sepharose 3 h; washed in 50 mM Tris-HCl pH 7.6, 150 mM NaCl, 0.1% Triton X-100; blotted for CAS and Pfn-1.

The target of test [5] is profilin-1 (Pfn-1) (mouse (endogenous in tracheal rings)) (UniProt P62962). The test can be described thus: co-IP; competition in tissue: synthetic cell-permeable CAS peptide (2.5 ug/ml, 30 min) added to mouse tracheal rings before ACh and co-immunoprecipitation of Pfn-1 with CAS; only the binder purified.

Results are given in words; binding and its absence hold for the method and conditions named. In cells and extracts the contact can be indirect. Some entries that bind do so weakly or less than the wild type.

In the case of “profilin-1 (Pfn-1) (from UniProt P07737 1-140)”, the binding entry in test [1], in test [2] and in test [3] was “binds” throughout. In the case of “profilin-1 (Pfn-1) (from UniProt P62962 1-140)”, the binding entry in test [4] is “binds”. Consider GRKKRRQRRRPPQPPQPQPSLPQGVHAPVPP [cell permeable decoy peptide (CAS)], for which the binding entry in test [5] is “binds”.

These data come from publication PMC5756382.
